From paper PMC3790011, “Transcription Factor Reb1p Regulates DGK1-encoded Diacylglycerol Kinase and Lipid Metabolism in Saccharomyces cerevisiae*” come the findings set out here.

The exact form of at least one protein or probe is not confirmed. A weaker result is weaker than the reference pair of the same experiment. Where a protein sequence is shown, tags need not be part of it.

This data set deals with T1, Reb1p (His6-Reb1p) (Saccharomyces cerevisiae RS453) (UniProt P21538).
T1 sequence (looked up, limits assumed): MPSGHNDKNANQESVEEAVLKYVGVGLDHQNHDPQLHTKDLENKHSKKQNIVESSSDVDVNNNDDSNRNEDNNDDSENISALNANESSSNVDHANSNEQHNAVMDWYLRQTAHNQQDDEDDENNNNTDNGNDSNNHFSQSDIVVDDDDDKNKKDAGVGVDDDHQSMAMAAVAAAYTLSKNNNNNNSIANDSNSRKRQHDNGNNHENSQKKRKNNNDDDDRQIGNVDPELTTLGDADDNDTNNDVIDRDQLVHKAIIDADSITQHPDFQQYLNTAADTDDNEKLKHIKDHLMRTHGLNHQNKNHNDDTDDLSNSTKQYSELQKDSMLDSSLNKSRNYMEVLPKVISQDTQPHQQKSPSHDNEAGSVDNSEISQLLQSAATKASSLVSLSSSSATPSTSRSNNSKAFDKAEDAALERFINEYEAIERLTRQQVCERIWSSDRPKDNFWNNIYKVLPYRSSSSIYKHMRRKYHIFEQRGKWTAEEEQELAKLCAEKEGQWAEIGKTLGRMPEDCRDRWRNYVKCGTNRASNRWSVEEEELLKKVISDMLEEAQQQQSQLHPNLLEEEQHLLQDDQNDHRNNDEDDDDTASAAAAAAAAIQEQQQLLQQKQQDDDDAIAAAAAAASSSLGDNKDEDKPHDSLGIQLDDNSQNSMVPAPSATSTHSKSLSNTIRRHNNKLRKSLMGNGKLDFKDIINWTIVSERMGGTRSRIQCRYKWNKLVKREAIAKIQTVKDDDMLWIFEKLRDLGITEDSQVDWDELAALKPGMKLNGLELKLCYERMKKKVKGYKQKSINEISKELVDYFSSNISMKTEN
The experiment in a line: EMSA. As to conditions: 10 mM Mg2+, 0.2-1.0 ug Reb1p, 4 pmol probe, shift greatly attenuated; 10 mM Tris-HCl pH 8.0, 10 mM MgCl2, 50 mM KCl, 1 mM DTT, 0.025 mg/ml poly(dI-dC), 0.2 mg/ml BSA, 0.04% IGEPAL CA-630, 10% glycerol; 15 min, room temperature; recombinant protein; protein details: N-terminal His6 (pET-15b); label: 32P (alpha-32P dTTP, Klenow).

For “AGGGTCCATAGCGGTGAACAAATTATTGG (double strand) [DGK1 promoter Reb1p site mutant (GT to TG)]”, the binding result is recorded as “binds more weakly”.
